Laboratory results published in patent publication US20070271623A1 (UNIVERSITY OF COPENHAGEN, published 2007).

B1: WRKY26 as prey (AD fusion) (other, UniProt Q9C5T3 1-309, looked up, not shown: large carriers)
chain: MGSFDRQRAVPKFKTATPSPLPLSPSPYFTMPPGLTPADFLDSPLLFTSSNILPSPTTGTFPAQSLNYNNNGLLIDKNEIKYEDTTPPLFLPSMVTQPLPQLDLFKSEIMSSNKTSDDGYNWRKYGQKQVKGSENPRSYFKCTYPNCLTKKKVETSLVKGQMIEIVYKGSHNHPKPQSTKRSSSTAIAAHQNSSNGDGKDIGEDETEAKRWKREENVKEPRVVVQTTSDIDILDDGYRWRKYGQKVVKGNPNPRSYYKCTFTGCFVRKHVERAFQDPKSVITTYEGKHKHQIPTPRRGPVLRLLGKTET
notes: mature
B2: WRKY33 as prey (AD fusion) (other, Arabidopsis thaliana, UniProt Q8S8P5 332-519, looked up, not shown: large carriers)
chain: NETNGGNGGGSKTVREPRIVVQTTSDIDILDDGYRWRKYGQKVVKGNPNPRSYYKCTTIGCPVRKHVERASHDMRAVITTYEGKHNHDVPAARGSGYATNRAPQDSSSVPIRPAAIAGHSNYTTSSQAPYTLQMLHNNNTNTGPFGYAMNNNNNNSNLQTQQNFVGGGFSRAKEEPNEETSFFDSFMP
notes: The library hits were five different truncated WRKY33 proteins; also called W33; transcription factor WRKY33

What was measured:
[1] = biological target: T1, MKS1 as bait (BD fusion), MKS1-BD (Arabidopsis thaliana); assay: directed yeast two-hybrid assay
T1 construct: also called MKS1 bait; MAP Kinase Substrate 1

MPK4 as bait (BD fusion) = biological target: T2, MPK4 as bait (BD fusion) (Arabidopsis thaliana, UniProt P04386 1-147; Q39024 1-376); assay: directed yeast two-hybrid assay
T2 construct: also called MPK4 bait

| Binder | binding result [1] | binding result (MPK4 as bait (BD fusion)) |
| --- | --- | --- |
| B1 | no binding | – |
| B2 | – | no binding |
